In this experiment the target is T1, O-GlcNAc transferase OGT, full length, isoform 1 (construct for cryo-EM), O15294.
T1 chain: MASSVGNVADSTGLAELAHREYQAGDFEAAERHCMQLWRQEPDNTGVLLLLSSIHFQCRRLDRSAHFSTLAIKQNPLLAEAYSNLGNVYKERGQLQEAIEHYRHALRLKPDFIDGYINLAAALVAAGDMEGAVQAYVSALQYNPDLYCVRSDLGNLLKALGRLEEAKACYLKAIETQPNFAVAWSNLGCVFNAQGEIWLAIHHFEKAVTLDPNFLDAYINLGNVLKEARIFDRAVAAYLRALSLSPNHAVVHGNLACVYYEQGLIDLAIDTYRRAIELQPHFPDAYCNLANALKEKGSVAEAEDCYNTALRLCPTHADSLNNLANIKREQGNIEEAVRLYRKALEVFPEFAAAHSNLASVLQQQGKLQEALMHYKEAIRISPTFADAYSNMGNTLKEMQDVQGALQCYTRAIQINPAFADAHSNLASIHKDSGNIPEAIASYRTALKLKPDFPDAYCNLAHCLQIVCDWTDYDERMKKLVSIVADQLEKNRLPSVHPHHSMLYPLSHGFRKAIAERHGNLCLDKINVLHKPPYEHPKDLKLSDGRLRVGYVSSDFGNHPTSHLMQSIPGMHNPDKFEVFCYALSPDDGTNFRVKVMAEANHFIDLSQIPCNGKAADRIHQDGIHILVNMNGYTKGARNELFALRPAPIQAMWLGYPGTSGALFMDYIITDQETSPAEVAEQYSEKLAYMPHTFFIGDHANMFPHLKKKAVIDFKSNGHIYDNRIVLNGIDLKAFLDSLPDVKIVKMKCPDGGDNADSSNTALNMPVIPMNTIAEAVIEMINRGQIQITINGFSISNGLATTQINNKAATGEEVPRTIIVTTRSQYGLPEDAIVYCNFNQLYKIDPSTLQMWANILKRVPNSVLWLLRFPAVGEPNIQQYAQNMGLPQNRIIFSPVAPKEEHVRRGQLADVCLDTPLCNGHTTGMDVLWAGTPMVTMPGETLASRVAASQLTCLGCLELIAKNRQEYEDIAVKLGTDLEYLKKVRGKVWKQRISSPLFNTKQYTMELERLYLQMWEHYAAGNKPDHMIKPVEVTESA
Put plainly: cryo-EM structure; unliganded OGT at 1 mg/ml in 25 mM HEPES pH 7.5, 150 mM NaCl, 1 mM DTT, 0.5% glycerol; 5.3 Å map; dimer; both purified. As to conditions: remark: other sources report otherwise.

These are yes or no findings as the source states them, for the method shown. Some entries that bind do so weakly or less than the wild type.

B1: O-GlcNAc transferase OGT, full length, isoform 1 (construct for cryo-EM), O15294-3 1-1036 (enzyme)
chain: MASSVGNVADSTGLAELAHREYQAGDFEAAERHCMQLWRQEPDNTGVLLLLSSIHFQCRRLDRSAHFSTLAIKQNPLLAEAYSNLGNVYKERGQLQEAIEHYRHALRLKPDFIDGYINLAAALVAAGDMEGAVQAYVSALQYNPDLYCVRSDLGNLLKALGRLEEAKACYLKAIETQPNFAVAWSNLGCVFNAQGEIWLAIHHFEKAVTLDPNFLDAYINLGNVLKEARIFDRAVAAYLRALSLSPNHAVVHGNLACVYYEQGLIDLAIDTYRRAIELQPHFPDAYCNLANALKEKGSVAEAEDCYNTALRLCPTHADSLNNLANIKREQGNIEEAVRLYRKALEVFPEFAAAHSNLASVLQQQGKLQEALMHYKEAIRISPTFADAYSNMGNTLKEMQDVQGALQCYTRAIQINPAFADAHSNLASIHKDSGNIPEAIASYRTALKLKPDFPDAYCNLAHCLQIVCDWTDYDERMKKLVSIVADQLEKNRLPSVHPHHSMLYPLSHGFRKAIAERHGNLCLDKINVLHKPPYEHPKDLKLSDGRLRVGYVSSDFGNHPTSHLMQSIPGMHNPDKFEVFCYALSPDDGTNFRVKVMAEANHFIDLSQIPCNGKAADRIHQDGIHILVNMNGYTKGARNELFALRPAPIQAMWLGYPGTSGALFMDYIITDQETSPAEVAEQYSEKLAYMPHTFFIGDHANMFPHLKKKAVIDFKSNGHIYDNRIVLNGIDLKAFLDSLPDVKIVKMKCPDGGDNADSSNTALNMPVIPMNTIAEAVIEMINRGQIQITINGFSISNGLATTQINNKAATGEEVPRTIIVTTRSQYGLPEDAIVYCNFNQLYKIDPSTLQMWANILKRVPNSVLWLLRFPAVGEPNIQQYAQNMGLPQNRIIFSPVAPKEEHVRRGQLADVCLDTPLCNGHTTGMDVLWAGTPMVTMPGETLASRVAASQLTCLGCLELIAKNRQEYEDIAVKLGTDLEYLKKVRGKVWKQRISSPLFNTKQYTMELERLYLQMWEHYAAGNKPDHMIKPVEVTESA
As to B1, the binding result was “binds”.

The values are drawn from publication PMC8586251, “Cryo-EM structure provides insights into the dimer arrangement of the O-linked β-N-acetylglucosamine transferase OGT” (Nature Communications, 2021).
